According to patent US20240132955A1, “BENIGN SCAR-FORMING CLEAVABLE LINKERS” (Ultima Genomics, Inc., priority 2021, published 2024):
Some values come without a unit; they compare only within their column.

System: nucleic acid template sequence with a homopolymeric sequence of variable length
Assay: Homopolymer detection linearity in sequencing with DPDS (FIG. 21A)
Type: biochemical

**Q.** Which results are given for dipyridyl disulfide [DPDS]?
**A.** difference between in and out of phase signal (base C homopolymers): 0.95; difference between in and out of phase signal (base G homopolymers): 0.63; difference between in and out of phase signal (base T homopolymers): 0.82; difference between in and out of phase signal (homopolymers of base A): 1.38
